Results: article PMC9371934
No constants are given. Whether binding was seen depends on the method and setting. Some binding calls cover weakened binding; strength is not graded here. Where a sequence is shown, tags or fusion partners need not be part of it. One block for each binder: values may come before it.

The chains behind the UniProt entries cited, without tags or fusion partners.
UniProt P35250: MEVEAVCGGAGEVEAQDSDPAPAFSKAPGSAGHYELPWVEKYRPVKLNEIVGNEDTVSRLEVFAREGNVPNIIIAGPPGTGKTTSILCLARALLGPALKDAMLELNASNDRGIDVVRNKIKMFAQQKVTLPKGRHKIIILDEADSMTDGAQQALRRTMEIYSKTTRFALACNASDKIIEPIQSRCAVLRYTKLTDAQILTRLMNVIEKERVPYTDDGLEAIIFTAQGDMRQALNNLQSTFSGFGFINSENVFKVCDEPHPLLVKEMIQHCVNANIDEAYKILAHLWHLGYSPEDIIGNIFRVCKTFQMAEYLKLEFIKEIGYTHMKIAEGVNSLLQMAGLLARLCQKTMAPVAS
UniProt P40938: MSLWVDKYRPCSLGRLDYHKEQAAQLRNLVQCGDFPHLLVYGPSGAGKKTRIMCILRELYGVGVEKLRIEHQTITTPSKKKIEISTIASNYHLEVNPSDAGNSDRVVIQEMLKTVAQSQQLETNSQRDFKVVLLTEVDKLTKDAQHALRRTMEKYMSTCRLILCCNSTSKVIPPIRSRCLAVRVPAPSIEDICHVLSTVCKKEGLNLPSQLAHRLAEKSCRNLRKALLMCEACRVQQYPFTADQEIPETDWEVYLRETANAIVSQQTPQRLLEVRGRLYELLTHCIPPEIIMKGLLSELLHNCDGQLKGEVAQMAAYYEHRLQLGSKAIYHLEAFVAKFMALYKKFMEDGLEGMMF

Legend:
Experiment in all cases: cryo-EM structure; co-expressed, purified RAD17–RFC–9–1–1 (RAD17 fused to the C-terminus of RAD1) with excess ATPγS and a hairpin DNA (24 bp dsDNA, 24 nt 3′ overhang); 600 nM sample; 10 mM HEPES pH 7.5, 150 mM NaCl, 0.5 mM TCEP; map at 3.59 Å; both purified
HUS1 (human) = target: T1, HUS1 (human) (UniProt O60921)
T1 sequence: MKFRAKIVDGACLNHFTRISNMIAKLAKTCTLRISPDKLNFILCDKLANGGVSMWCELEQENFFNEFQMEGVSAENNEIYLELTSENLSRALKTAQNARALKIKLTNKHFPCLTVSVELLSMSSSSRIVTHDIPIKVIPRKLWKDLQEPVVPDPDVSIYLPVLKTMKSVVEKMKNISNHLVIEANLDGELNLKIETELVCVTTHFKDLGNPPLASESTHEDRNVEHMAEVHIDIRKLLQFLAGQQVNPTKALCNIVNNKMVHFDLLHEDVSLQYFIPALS

RAD9–HIS (human) = target: T2, RAD9–HIS (human) (UniProt Q99638)
T2 sequence: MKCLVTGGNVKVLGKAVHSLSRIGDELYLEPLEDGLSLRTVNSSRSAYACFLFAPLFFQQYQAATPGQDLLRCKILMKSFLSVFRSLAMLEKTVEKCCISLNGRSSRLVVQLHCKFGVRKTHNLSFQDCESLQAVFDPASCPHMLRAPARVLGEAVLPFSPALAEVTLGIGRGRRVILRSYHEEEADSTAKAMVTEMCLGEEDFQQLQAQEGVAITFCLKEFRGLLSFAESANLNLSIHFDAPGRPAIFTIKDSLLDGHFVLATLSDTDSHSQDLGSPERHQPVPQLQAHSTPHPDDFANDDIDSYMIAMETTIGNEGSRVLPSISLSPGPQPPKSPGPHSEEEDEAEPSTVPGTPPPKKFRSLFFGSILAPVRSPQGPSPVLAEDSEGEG

RFC2 (human) = RFC2 (human) (UniProt P35250)
RFC3 (human) = RFC3 (human) (UniProt P40938)
[1] = target: T3, RAD1 (N-terminal half of the fusion chain RAD1–STREP–RAD17–HIS) (human) (UniProt O60671)
T3 sequence: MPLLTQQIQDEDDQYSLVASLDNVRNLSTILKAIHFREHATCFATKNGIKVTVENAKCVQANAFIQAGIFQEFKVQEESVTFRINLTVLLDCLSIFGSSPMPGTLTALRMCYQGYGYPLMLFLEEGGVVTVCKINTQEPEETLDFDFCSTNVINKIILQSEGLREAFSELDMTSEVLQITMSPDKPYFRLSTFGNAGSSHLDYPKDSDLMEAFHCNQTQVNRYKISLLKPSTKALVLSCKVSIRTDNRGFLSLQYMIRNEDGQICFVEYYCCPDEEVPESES

binding (RFC2 (human)): binds
binding (RFC3 (human)): binds
B3: RAD17 (C-terminal half of the fusion chain RAD1–STREP–RAD17–HIS) (protein, UniProt O75943 1-681)
chain: MSKTFLRPKVSSTKVTDWVDPSFDDFLECSGVSTITATSLGVNNSSHRRKNGPSTLESSRFPARKRGNLSSLEQIYGLENSKEYLSENEPWVDKYKPETQHELAVHKKKIEEVETWLKAQVLERQPKQGGSILLITGPPGCGKTTTLKILSKEHGIQVQEWINPVLPDFQKDDFKGMFNTESSFHMFPYQSQIAVFKEFLLRATKYNKLQMLGDDLRTDKKIILVEDLPNQFYRDSHTLHEVLRKYVRIGRCPLIFIISDSLSGDNNQRLLFPKEIQEECSISNISFNPVAPTIMMKFLNRIVTIEANKNGGKITVPDKTSLELLCQGCSGDIRSAINSLQFSSSKGENNLRPRKKGMSLKSDAVLSKSKRRKKPDRVFENQEVQAIGGKDVSLFLFRALGKILYCKRASLTELDSPRLPSHLSEYERDTLLVEPEEVVEMSHMPGDLFNLYLHQNYIDFFMEIDDIVRASEFLSFADILSGDWNTRSLLREYSTSIATRGVMHSNKARGYAHCQGGGSSFRPLHKPQWFLINKKYRENCLAAKALFPDFCLPALCLQTQLLPYLALLTIPMRNQAQISFIQDIGRLPLKRHFGRLKMEALTDREHGMIDPDSGDEAQLNGGHSAEESLGEPTQATVPETWSLPLSQNSASELPASQPQPFSAQGDMEENIIIEDYESDGT

binding [1]: binds
B4: RAD9–HIS (protein, UniProt Q99638 1-391)
chain: MKCLVTGGNVKVLGKAVHSLSRIGDELYLEPLEDGLSLRTVNSSRSAYACFLFAPLFFQQYQAATPGQDLLRCKILMKSFLSVFRSLAMLEKTVEKCCISLNGRSSRLVVQLHCKFGVRKTHNLSFQDCESLQAVFDPASCPHMLRAPARVLGEAVLPFSPALAEVTLGIGRGRRVILRSYHEEEADSTAKAMVTEMCLGEEDFQQLQAQEGVAITFCLKEFRGLLSFAESANLNLSIHFDAPGRPAIFTIKDSLLDGHFVLATLSDTDSHSQDLGSPERHQPVPQLQAHSTPHPDDFANDDIDSYMIAMETTIGNEGSRVLPSISLSPGPQPPKSPGPHSEEEDEAEPSTVPGTPPPKKFRSLFFGSILAPVRSPQGPSPVLAEDSEGEG

Continued, binder first:

B1: RAD1 (N-terminal half of the fusion chain RAD1–STREP–RAD17–HIS) (protein, UniProt O60671 1-282)
chain: MPLLTQQIQDEDDQYSLVASLDNVRNLSTILKAIHFREHATCFATKNGIKVTVENAKCVQANAFIQAGIFQEFKVQEESVTFRINLTVLLDCLSIFGSSPMPGTLTALRMCYQGYGYPLMLFLEEGGVVTVCKINTQEPEETLDFDFCSTNVINKIILQSEGLREAFSELDMTSEVLQITMSPDKPYFRLSTFGNAGSSHLDYPKDSDLMEAFHCNQTQVNRYKISLLKPSTKALVLSCKVSIRTDNRGFLSLQYMIRNEDGQICFVEYYCCPDEEVPESES
binding (HUS1 (human)): binds

B2: HUS1 (protein, UniProt O60921 1-280)
chain: MKFRAKIVDGACLNHFTRISNMIAKLAKTCTLRISPDKLNFILCDKLANGGVSMWCELEQENFFNEFQMEGVSAENNEIYLELTSENLSRALKTAQNARALKIKLTNKHFPCLTVSVELLSMSSSSRIVTHDIPIKVIPRKLWKDLQEPVVPDPDVSIYLPVLKTMKSVVEKMKNISNHLVIEANLDGELNLKIETELVCVTTHFKDLGNPPLASESTHEDRNVEHMAEVHIDIRKLLQFLAGQQVNPTKALCNIVNNKMVHFDLLHEDVSLQYFIPALS
binding (RAD9–HIS (human)): binds
